Results from US20050256134A1, “Use of creatine analogues and creatine kinase modulators for the prevention and treatment of glucose metabolic disorders” (AVICENA GROUP, INC., priority 1995, published 2005).
This continues a long series; more values of the same kind are listed elsewhere.

Tested on: terminal cancer patients
Test: Phase I/II open label dose escalation study, glucose levels, 3 hour continuous infusion
Assay type: in vivo, human
Procedure: Cyclocreatine was tested in humans in a phase I/II open label dose escalation study. […] Cyclocreatine was administered at doses that ranged from 10 mg/Kg to 100 mg/Kg. The schedule of administration of cyclocreatine is described in Table 4.
Cohorts of 3 patients were administered drug at each dose level, via a 3 hour continuous infusion in one liter volume of saline. The first week patients received cyclocreatine once, the second week patients received cyclocreatine twice, the third week three times, the fourth week four times, the fifth week five times. On weeks six and seven, no drug was administered to allow the drug to wash out. On week eight, cyclocreatine was given five times. The study included a total of 23 patients (18 male, 5 female) with a median age of 71 years (range 54-85). The patients had different types of malignancies. Eligibility requirements included patients who have failed standard therapy or for whom no therapy was available, normal organ function, have recovered from prior therapies, probability of survival of greater than three months. Reasons for exclusion included: major surgery, life threatening concurrent illness and CNS metastasis. Blood samples were collected at baseline and 1 day before and after the last weekly drug administration on days 1, 7, 9, 14, 17, 21, 25, 28, 33, 40, 47, 49, 54, 61, and 69. Glucose levels were determined for these collected blood samples. […] Not all patients experienced a significant drop in glucose although the trend was there. FIGS. 14 and 15 illustrate graphically individual patients' glucose levels upon treatment with 60 mg/Kg or 80 mg/Kg cyclocreatine. Patient (A) at the 80 mg/Kg dose was diabetic and had many serious complications due to their disease. […] It should be noted that an insufficient number of readings was made shortly after drug administration. It is interesting to note that several patients who were diabetic or had higher glucose levels than normal did respond to cyclocreatine, onen example being illustrated in FIG. 16.

`NC1=NCCN1CC(=O)O` [cyclocreatine] was tested. Which Glucose (Patient 4, 20 mg/Kg, Study Day 9) did it give?
Its Glucose is 79 mg/dL.

And the Glucose (Patient 4, 20 mg/Kg, Study Day 14)?
The Glucose was 93 mg/dL.

What about the Glucose (Patient 4, 20 mg/Kg, Study Day 17) of the same compound?
The Glucose was 60 mg/dL.

And the Glucose (Patient 4, 20 mg/Kg, Study Day 21)?
Its Glucose is 73 mg/dL.

What about the Glucose (Patient 4, 20 mg/Kg, Study Day 25) of the same compound?
The Glucose was 98 mg/dL.

What about the Glucose (Patient 4, 20 mg/Kg, Study Day 28) of the same compound?
Its Glucose is 88 mg/dL.

And the Glucose (Patient 4, 20 mg/Kg, Study Day 33)?
The Glucose was 70 mg/dL.

What about the Glucose (Patient 4, 20 mg/Kg, Study Day 40) of the same compound?
The Glucose was 74 mg/dL.

What about the Glucose (Patient 4, 20 mg/Kg, Study Day 49) of the same compound?
Its Glucose is 88 mg/dL.

And the Glucose (Patient 4, 20 mg/Kg, Study Day 54)?
Its Glucose is 89 mg/dL.

What about the Glucose (Patient 4, 20 mg/Kg, Study Day 61) of the same compound?
The Glucose was 74 mg/dL.

And the Glucose (Patient 4, 20 mg/Kg, Study Day 69)?
Its Glucose is 83 mg/dL.

What about the Glucose (Patient 5, 20 mg/Kg, Study Day 0) of the same compound?
Its Glucose is 117 mg/dL.

What about the Glucose (Patient 5, 20 mg/Kg, Study Day 1) of the same compound?
Its Glucose is 91 mg/dL.

What about the Glucose (Patient 5, 20 mg/Kg, Study Day 7) of the same compound?
Its Glucose is 114 mg/dL.

And the Glucose (Patient 5, 20 mg/Kg, Study Day 9)?
Its Glucose is 84 mg/dL.

What about the Glucose (Patient 5, 20 mg/Kg, Study Day 17) of the same compound?
Its Glucose is 89 mg/dL.

And the Glucose (Patient 5, 20 mg/Kg, Study Day 21)?
Its Glucose is 136 mg/dL.

What about the Glucose (Patient 5, 20 mg/Kg, Study Day 25) of the same compound?
Its Glucose is 100 mg/dL.

And the Glucose (Patient 5, 20 mg/Kg, Study Day 28)?
The Glucose was 180 mg/dL.

And the Glucose (Patient 5, 20 mg/Kg, Study Day 33)?
The Glucose was 89 mg/dL.

And the Glucose (Patient 5, 20 mg/Kg, Study Day 40)?
The Glucose was 121 mg/dL.

What about the Glucose (Patient 5, 20 mg/Kg, Study Day 49) of the same compound?
The Glucose was 90 mg/dL.

And the Glucose (Patient 5, 20 mg/Kg, Study Day 54)?
Its Glucose is 60 mg/dL.

And the Glucose (Patient 5, 20 mg/Kg, Study Day 61)?
Its Glucose is 102 mg/dL.

What about the Glucose (Patient 5, 20 mg/Kg, Study Day 69) of the same compound?
The Glucose was 114 mg/dL.

And the Glucose (Patient 6, 20 mg/Kg, Study Day 0)?
Its Glucose is 85 mg/dL.

What about the Glucose (Patient 6, 20 mg/Kg, Study Day 1) of the same compound?
Its Glucose is 83 mg/dL.

And the Glucose (Patient 6, 20 mg/Kg, Study Day 7)?
Its Glucose is 141 mg/dL.

And the Glucose (Patient 7, 20 mg/Kg, Study Day 0)?
The Glucose was 240 mg/dL.

What about the Glucose (Patient 7, 20 mg/Kg, Study Day 1) of the same compound?
The Glucose was 201 mg/dL.

What about the Glucose (Patient 7, 20 mg/Kg, Study Day 7) of the same compound?
Its Glucose is 120 mg/dL.

What about the Glucose (Patient 7, 20 mg/Kg, Study Day 9) of the same compound?
Its Glucose is 161 mg/dL.

What about the Glucose (Patient 7, 20 mg/Kg, Study Day 14) of the same compound?
The Glucose was 207 mg/dL.

And the Glucose (Patient 7, 20 mg/Kg, Study Day 17)?
The Glucose was 135 mg/dL.

And the Glucose (Patient 7, 20 mg/Kg, Study Day 21)?
The Glucose was 154 mg/dL.

What about the Glucose (Patient 7, 20 mg/Kg, Study Day 28) of the same compound?
The Glucose was 172 mg/dL.

And the Glucose (Patient 7, 20 mg/Kg, Study Day 33)?
Its Glucose is 174 mg/dL.

What about the Glucose (Patient 7, 20 mg/Kg, Study Day 40) of the same compound?
The Glucose was 159 mg/dL.

And the Glucose (Patient 7, 20 mg/Kg, Study Day 47)?
Its Glucose is 202 mg/dL.

What about the Glucose (Patient 7, 20 mg/Kg, Study Day 49) of the same compound?
The Glucose was 201 mg/dL.

What about the Glucose (Patient 7, 20 mg/Kg, Study Day 54) of the same compound?
Its Glucose is 120 mg/dL.

What about the Glucose (Patient 7, 20 mg/Kg, Study Day 61) of the same compound?
Its Glucose is 128 mg/dL.

What about the Glucose (Patient 7, 20 mg/Kg, Study Day 69) of the same compound?
Its Glucose is 156 mg/dL.

And the Glucose (Patient 11, 60 mg/Kg, Study Day 0)?
Its Glucose is 118 mg/dL.

And the Glucose (Patient 11, 60 mg/Kg, Study Day 1)?
Its Glucose is 76 mg/dL.

And the Glucose (Patient 11, 60 mg/Kg, Study Day 9)?
Its Glucose is 89 mg/dL.

And the Glucose (Patient 11, 60 mg/Kg, Study Day 14)?
The Glucose was 108 mg/dL.

What about the Glucose (Patient 11, 60 mg/Kg, Study Day 17) of the same compound?
The Glucose was 92 mg/dL.

And the Glucose (Patient 11, 60 mg/Kg, Study Day 21)?
Its Glucose is 90 mg/dL.

What about the Glucose (Patient 11, 60 mg/Kg, Study Day 25) of the same compound?
Its Glucose is 90 mg/dL.

What about the Glucose (Patient 12, 60 mg/Kg, Study Day 0) of the same compound?
Its Glucose is 83 mg/dL.

And the Glucose (Patient 12, 60 mg/Kg, Study Day 1)?
Its Glucose is 89 mg/dL.

What about the Glucose (Patient 12, 60 mg/Kg, Study Day 9) of the same compound?
Its Glucose is 92 mg/dL.

What about the Glucose (Patient 12, 60 mg/Kg, Study Day 14) of the same compound?
The Glucose was 105 mg/dL.

What about the Glucose (Patient 12, 60 mg/Kg, Study Day 17) of the same compound?
The Glucose was 73 mg/dL.

What about the Glucose (Patient 12, 60 mg/Kg, Study Day 21) of the same compound?
Its Glucose is 138 mg/dL.

What about the Glucose (Patient 12, 60 mg/Kg, Study Day 25) of the same compound?
Its Glucose is 68 mg/dL.

What about the Glucose (Patient 12, 60 mg/Kg, Study Day 28) of the same compound?
The Glucose was 74 mg/dL.

And the Glucose (Patient 12, 60 mg/Kg, Study Day 33)?
Its Glucose is 113 mg/dL.

And the Glucose (Patient 12, 60 mg/Kg, Study Day 40)?
Its Glucose is 83 mg/dL.

What about the Glucose (Patient 12, 60 mg/Kg, Study Day 47) of the same compound?
Its Glucose is 95 mg/dL.

And the Glucose (Patient 12, 60 mg/Kg, Study Day 49)?
The Glucose was 98 mg/dL.

And the Glucose (Patient 12, 60 mg/Kg, Study Day 61)?
Its Glucose is 106 mg/dL.

What about the Glucose (Patient 12, 60 mg/Kg, Study Day 69) of the same compound?
The Glucose was 112 mg/dL.

What about the Glucose (Patient 13, 60 mg/Kg, Study Day 0) of the same compound?
Its Glucose is 147 mg/dL.

And the Glucose (Patient 13, 60 mg/Kg, Study Day 1)?
Its Glucose is 100 mg/dL.

What about the Glucose (Patient 13, 60 mg/Kg, Study Day 14) of the same compound?
Its Glucose is 93 mg/dL.

What about the Glucose (Patient 13, 60 mg/Kg, Study Day 17) of the same compound?
Its Glucose is 92 mg/dL.

What about the Glucose (Patient 13, 60 mg/Kg, Study Day 21) of the same compound?
The Glucose was 82 mg/dL.

What about the Glucose (Patient 13, 60 mg/Kg, Study Day 25) of the same compound?
Its Glucose is 75 mg/dL.

And the Glucose (Patient 13, 60 mg/Kg, Study Day 28)?
The Glucose was 56 mg/dL.

What about the Glucose (Patient 13, 60 mg/Kg, Study Day 33) of the same compound?
Its Glucose is 85 mg/dL.

And the Glucose (Patient 13, 60 mg/Kg, Study Day 40)?
Its Glucose is 67 mg/dL.

What about the Glucose (Patient 13, 60 mg/Kg, Study Day 47) of the same compound?
Its Glucose is 142 mg/dL.

And the Glucose (Patient 13, 60 mg/Kg, Study Day 49)?
The Glucose was 106 mg/dL.

What about the Glucose (Patient 13, 60 mg/Kg, Study Day 54) of the same compound?
The Glucose was 72 mg/dL.

And the Glucose (Patient 13, 60 mg/Kg, Study Day 61)?
The Glucose was 64 mg/dL.

And the Glucose (Patient 13, 60 mg/Kg, Study Day 69)?
Its Glucose is 141 mg/dL.

What about the Glucose (Patient 14, 80 mg/Kg, Study Day 0) of the same compound?
Its Glucose is 172 mg/dL.

And the Glucose (Patient 14, 80 mg/Kg, Study Day 1)?
The Glucose was 33 mg/dL.

What about the Glucose (Patient 14, 80 mg/Kg, Study Day 7) of the same compound?
Its Glucose is 243 mg/dL.

And the Glucose (Patient 14, 80 mg/Kg, Study Day 9)?
Its Glucose is 378 mg/dL.

And the Glucose (Patient 14, 80 mg/Kg, Study Day 14)?
Its Glucose is 198 mg/dL.

And the Glucose (Patient 14, 80 mg/Kg, Study Day 17)?
The Glucose was 291 mg/dL.

What about the Glucose (Patient 14, 80 mg/Kg, Study Day 21) of the same compound?
Its Glucose is 271 mg/dL.

What about the Glucose (Patient 14, 80 mg/Kg, Study Day 25) of the same compound?
Its Glucose is 352 mg/dL.

What about the Glucose (Patient 14, 80 mg/Kg, Study Day 28) of the same compound?
Its Glucose is 364 mg/dL.

What about the Glucose (Patient 14, 80 mg/Kg, Study Day 33) of the same compound?
The Glucose was 345 mg/dL.

What about the Glucose (Patient 14, 80 mg/Kg, Study Day 40) of the same compound?
The Glucose was 175 mg/dL.

What about the Glucose (Patient 14, 80 mg/Kg, Study Day 49) of the same compound?
Its Glucose is 280 mg/dL.

What about the Glucose (Patient 14, 80 mg/Kg, Study Day 54) of the same compound?
Its Glucose is 416 mg/dL.

What about the Glucose (Patient 15, 80 mg/Kg, Study Day 0) of the same compound?
The Glucose was 100 mg/dL.

And the Glucose (Patient 15, 80 mg/Kg, Study Day 1)?
Its Glucose is 85 mg/dL.

What about the Glucose (Patient 15, 80 mg/Kg, Study Day 7) of the same compound?
Its Glucose is 93 mg/dL.

And the Glucose (Patient 15, 80 mg/Kg, Study Day 9)?
Its Glucose is 65 mg/dL.

And the Glucose (Patient 15, 80 mg/Kg, Study Day 14)?
Its Glucose is 88 mg/dL.
